From patent publication US20090227683A1, “Compositions for Providing an Analgesic Effect to the Skin” (priority 2008, published 2009)

Tested on: Albino male CD-1 mice (neurogenic inflammation induced by Resiniferatoxin)
Experiment: Resiniferatoxin neurogenic inflammation model in the mouse ear (ear edema)
Type: in vivo
Conditions: summary of Tables 2 to 4
Source text: Neurosensory inflammation, also referred to as neurogenic inflammation, is a type of inflammation triggered by sensory nerve activation in skin. Certain natural substances that act on vanilloid receptors cause sensory nerves (C-fibers) to release inflammatory neuropeptides. In mouse skin, an edema response occurs rapidly upon application of a vanilloid receptor activator, such as capsaicin or resiniferatoxin (RTX).
Albino male CD-1 mice, 7-9 weeks old, were used. […] A 20-μL volume of Resiniferatoxin (0.05%) prepared in acetone was applied to the left ears (7 mice per treatment group). The right ear was not treated. Test agents were prepared in a 70% ethanol/30% propylene glycol vehicle and applied to the left ear (20 μL) immediately after resiniferatoxin challenge. The percent inhibition was calculated by comparing treatments to resiniferatoxin alone. Anti-neurogenic inflammation effects of compounds are evident as an inhibition of the increase in ear weight.

CCN(CC)CC(=O)Nc1c(C)cccc1C [Lidocaine, reference compound]
inhibition of the neurogenic inflammatory response to resiniferatoxin, in words: active
